Some of these results come from one statement about several compounds together.
Test system: human colon cancer cell line HCT 116
Assay: Proliferation inhibition assay: cell count with automatic cell counter
Type: cell-based
Settings: HCT 116 cells; 10 micromolar once per day; counted after 3 to 7 days

Substance | number of cells in treated cultures relative to cultures treated with oligonucleotide (3) (100%)
5′-AAAATGCAGGTAAGCATGTGAAAA-3′ [oligonucleotide (2)] | not more than 30 % of control
5′-CAGCGATTTAAATACGGAACAAGG-3′ [oligonucleotide (1)] | not more than 30 % of control

— patent US20030003488A1, “Regulation of human mitochondrial deformylase” (priority 1999, published 2003)
